Experimental data published in patent US20140093588A1 (Fred Hutchinson Cancer Research Center, priority 2006, published 2014).
At least one compound was matched to its structure with a doubt left.

Assays:
Murine J774 macrophages = test: Cell viability (MTT reduction) of macrophages treated with GSNO or ONOO— after sulfide pretreatment; assay type: cell-based
[1] = system: LPS-induced IL-1 and TNF production; test: Bacterial lipopolysaccharide endotoxemia in mice, IL-1β and TNFα plasma levels by ELISA; assay type: in vivo, C57/BI6 mice; conditions: LPS 5 mg/kg ip, H2S 0.2 mg/kg/hr, 4 hrs by Alzet minipump, 30 min pretreatment, plasma after 4 hours
Experimental: Four groups of C57/BI6 mice were subjected to bacterial lipopolysaccharide (5 mg/kg ip). Three groups received H2S treatment (0.2 mg/kg/hr, 4 hrs), and a control group received saline using Alzet osmotic minipumps 30 minutes prior to the induction of endotoxemia (n=7−10/group) in both cases. The effect of the heme oxygenase inhibitor tin-protoporphyrin IX (6 mg/kg, ip, 30 min earlier to Alzet treatment) was also examined in two groups. After 4 hours, the animals were anesthetized using pentobarbital (60 mg/kg ip) and blood samples were taken. IL-1β and TNFα plasma levels were measured using a commercially available ELISA kit (R&D Systems).

What does the source list for `S` [H2S, hydrogen sulfide]?
cell viability during GSNO treatment (Murine J774 macrophages; 24 hours H2S pretreatment (30 mM, 60 mM, 100 mM, 1 mM), GSNO 1 mM and 3 mM for 3 hours): significantly improves cell viability; cell viability during ONOO— treatment (Murine J774 macrophages; 24 hours H2S pretreatment (30 mM, 60 mM, 100 mM, 1 mM), ONOO— 300 mM for 3 hours): significantly improves cell viability; S-nitroso-glutathione (GSNO) and peroxynitrite-induced alterations in J774 murine macrophages (Murine J774 macrophages; pretreatment with H2S for 30 minutes or 24 hours): modulated; LPS-induced IL-1 production [1]: significantly reduces; LPS-induced TNF production [1]: significantly reduces
